Measurements: PubChem BioAssay AID493014 (National Center for Advancing Translational Sciences (NCATS), 2011)
Out of some 340,000 compounds screened, about 170 (0.05%) were called active. This list was built around the results that the source calls inconclusive (neither active nor inactive); the mix of calls is not that of the screen. The call rests on the fitted dose curve; in most records, active means well fitted inhibition curve with a large enough effect in the signal ratio, with a control signal flat (not every such curve was filed as active); inconclusive means small, poorly fitted or top-dose-only effect, or effect the other way, or a change in a side signal; inactive means flat fitted curve, though single readings scatter; the % refers to the signal ratio. Where the call is inconclusive, the potency comes from a doubtful curve fit.

Assay: qHTS Assay to Find Inhibitors of Chronic Active B-Cell Receptor Signaling;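 on activity change, negative = inhibition: plate controls were basal doxycycline-induced cells for no effect and cells given 10 µM MG132 for full effect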
Settings: ABC-DLBCL IkBa-CBG/CBR reporter, luminescence ratio (green luciferase fused to IkBa over red control in TMD8 lymphoma cells), 4 h; activity change, negative = inhibition: at 46.1 µM (top of the series)
In short: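 Compounds up to 46 uM were incubated four hours with TMD8 cells whose green CBG68 luciferase is fused to IkappaBalpha; red CBR luminescence normalised the signal, and concentration-effect curves were fitted to fusion, red and ratio data.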
Potency means the concentration at half of the fitted maximal effect.

Question: For COc1ccc(OC)c(NC(=O)CSc2nn3c(=O)c(C)nnc3s2)c1, which “activity change, negative = inhibition” value is on record?
Answer: inactive: -8.26%

Question: With Cc1cccc(CSc2nnc(-c3ccco3)o2)c1 as the molecule, how does the “activity change, negative = inhibition” value read?
Answer: inactive: -14.2%

Question: For Cc1ccc(CNC(=O)CCCNC(=O)c2ccc(Cl)cc2)n1C, which activity change, negative = inhibition is on record?
Answer: inconclusive: -9.59%

Question: For Cc1ccc(OCCN2C(=O)C(=O)c3cc(C)ccc32)cc1, which activity change, negative = inhibition is on record?
Answer: inconclusive: -13.7%

Question: Which “activity change, negative = inhibition” value does the source give for COc1ccccc1NC(=O)C1=C(C)Nc2nnnn2C1c1ccccc1OC (stereo not given) here?
Answer: inactive: 5.34%

Question: Which “activity change, negative = inhibition” value does the source give for COc1ccc2[nH]c(=O)c(CN(C)C(=O)c3ccncc3)cc2c1 here?
Answer: inactive: -10.8%

Question: For CCCC(=O)Nc1cccc(-c2nc3cc(C)c(C)cc3o2)c1, which activity change, negative = inhibition is on record?
Answer: inconclusive: 11.3%

Question: With C=CCN(C(=O)CSc1nc2ccsc2c(=O)n1Cc1ccccn1)c1ccccc1 as the molecule, how does the Potency read?
Answer: inconclusive: 11.2 µM [rising, partial curve, poor fit]

Question: Which “activity change, negative = inhibition” value does the source give for CSCCC(NC(=O)c1ccccc1)C(=O)N1CCN(C(c2ccccc2)c2ccccc2)CC1 (stereo not given) here?
Answer: inactive: -1.86%

Question: For COc1cc(C(=O)N2CCN(c3ccccn3)CC2)cc(OC)c1OC, which activity change, negative = inhibition is on record?
Answer: inconclusive: 5.97%

Question: Which activity change, negative = inhibition does the source give for COc1ccc(NC(=O)C2CCN(S(=O)(=O)c3ccc(Br)s3)CC2)cc1OC here?
Answer: inconclusive: -0.275%

Question: For O=C(Oc1ccccc1)c1ccc(-n2cnnn2)cc1, which activity change, negative = inhibition is on record?
Answer: inconclusive: 8.16%

Question: For Nc1ncnc2nc[nH]c12, which activity change, negative = inhibition is on record?
Answer: inconclusive: 1.69%

Question: For CSc1nc2n(n1)C(c1cccs1)C1=C(CCCC1=O)N2 (stereo not given), which “activity change, negative = inhibition” value is on record?
Answer: inactive: 9.98%

Question: For Cc1cc(C)c2c(-n3cccc3)c(C(=O)O)sc2n1, which Potency is on record?
Answer: inconclusive: 20 µM [falling, single point]

Question: Which Potency does the source give for COC(=O)/C=C1\SC(N2CCOCC2)=C(c2ccc(OC)cc2)C1=O here?
Answer: inconclusive: 12.6 µM [falling, partial curve]

Question: Which activity change, negative = inhibition does the source give for C=CCSc1ncccc1C(=O)O here?
Answer: inconclusive: 9.37%

Question: Which activity change, negative = inhibition does the source give for CC(=O)C1=C(C)Nc2ncnn2C1c1ccc(Cl)cc1Cl (stereo not given) here?
Answer: inconclusive: 2.35%

Question: Which Potency does the source give for CCC1CCCCN1C(=O)c1sc2nc(C)nc(N(CC)CC)c2c1C (stereo not given) here?
Answer: inconclusive: 11.2 µM [rising, partial curve, poor fit]

Question: Which activity change, negative = inhibition does the source give for CCOC(=O)c1cc(C)n(CCc2ccccc2)c1C here?
Answer: inconclusive: 14.7%

Question: For CCCCc1cc(=O)oc2c(C)c(OCC(=O)N3CCC(C(N)=O)CC3)ccc12, which activity change, negative = inhibition is on record?
Answer: inconclusive: 1.86%

Question: For O=[N+]([O-])c1cccc(-c2nc3ccc([N+](=O)[O-])cc3[nH]2)c1, which “activity change, negative = inhibition” value is on record?
Answer: inactive: -0.128%

Question: With Cc1cc(C)nc(SCc2ccc(Cl)cc2)n1 as the molecule, how does the activity change, negative = inhibition read?
Answer: inconclusive: 10.9%

Question: For COc1ccc(C2C(C#N)=C(N)Oc3c2c(C)nn3-c2ccccc2)cc1Cn1nc(C)c([N+](=O)[O-])c1C (stereo not given), which activity change, negative = inhibition is on record?
Answer: inconclusive: -13%

Question: For COc1ccc(C(=O)N(C)CC2CCN(CCc3cccc(C(F)(F)F)c3)CC2)cc1C, which “activity change, negative = inhibition” value is on record?
Answer: inactive: -0.572%
